Assay results taken from US20190316208A1.
Results are given in words; binding and its absence hold for the method and conditions named. Binding seen in cells or lysates may run through a third protein. Some results given as binding are weak or reduced against the parent protein; the word gives no strength.

Protein sequences, listed by entry. Tags and fused reporters are not part of them. Residues count along the entry.
UniProt Q02248, residues 2-781: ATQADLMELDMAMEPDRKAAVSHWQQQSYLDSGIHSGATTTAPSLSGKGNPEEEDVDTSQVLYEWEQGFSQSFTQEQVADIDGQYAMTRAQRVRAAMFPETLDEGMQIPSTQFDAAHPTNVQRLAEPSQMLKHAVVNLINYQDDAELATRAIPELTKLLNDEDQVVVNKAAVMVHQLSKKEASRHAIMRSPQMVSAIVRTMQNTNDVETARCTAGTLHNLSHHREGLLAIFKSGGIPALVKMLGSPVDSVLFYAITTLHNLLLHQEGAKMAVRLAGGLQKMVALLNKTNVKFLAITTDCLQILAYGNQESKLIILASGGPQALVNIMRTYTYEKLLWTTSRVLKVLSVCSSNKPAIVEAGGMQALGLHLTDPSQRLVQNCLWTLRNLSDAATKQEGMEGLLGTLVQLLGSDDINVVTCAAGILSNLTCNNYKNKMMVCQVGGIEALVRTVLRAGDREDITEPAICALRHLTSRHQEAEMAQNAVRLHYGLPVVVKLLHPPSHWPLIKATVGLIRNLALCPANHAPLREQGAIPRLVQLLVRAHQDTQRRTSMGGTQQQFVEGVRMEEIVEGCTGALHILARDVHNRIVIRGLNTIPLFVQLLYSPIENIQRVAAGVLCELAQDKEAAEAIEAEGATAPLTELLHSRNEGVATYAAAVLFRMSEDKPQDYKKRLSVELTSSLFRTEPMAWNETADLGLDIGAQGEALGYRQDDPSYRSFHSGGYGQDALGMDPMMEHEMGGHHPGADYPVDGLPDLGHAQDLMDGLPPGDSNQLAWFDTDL
UniProt P37238: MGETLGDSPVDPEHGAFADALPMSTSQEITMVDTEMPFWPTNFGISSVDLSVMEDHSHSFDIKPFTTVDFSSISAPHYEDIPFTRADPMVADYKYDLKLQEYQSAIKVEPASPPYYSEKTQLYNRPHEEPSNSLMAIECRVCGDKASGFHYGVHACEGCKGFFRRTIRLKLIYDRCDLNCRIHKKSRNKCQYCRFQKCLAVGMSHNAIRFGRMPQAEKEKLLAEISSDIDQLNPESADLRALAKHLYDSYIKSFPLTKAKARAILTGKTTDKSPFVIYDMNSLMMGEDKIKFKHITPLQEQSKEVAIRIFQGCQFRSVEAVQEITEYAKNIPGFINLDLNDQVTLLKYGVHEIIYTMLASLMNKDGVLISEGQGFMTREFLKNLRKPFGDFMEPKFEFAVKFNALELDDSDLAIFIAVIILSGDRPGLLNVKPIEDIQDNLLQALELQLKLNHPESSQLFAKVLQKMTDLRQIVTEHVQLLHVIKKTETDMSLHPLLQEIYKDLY

Assays:
β-catenin (mouse) [1] = biological target: β-catenin (mouse) (UniProt Q02248); assay: endogenous co-immunoprecipitation in primary DCs: β-catenin IP, PPAR-γ western blot
β-catenin (mouse) [2] = biological target: β-catenin (mouse) (UniProt Q02248); assay: endogenous co-immunoprecipitation in primary DCs, restated in the discussion

binding (β-catenin (mouse) [1]): binds
binding (β-catenin (mouse) [2]): binds
Substance: peroxisome proliferator-activated receptor-γ (PPAR-γ) (from UniProt P37238 1-505)
